Measured values as given in PMC8910688.
No constants are given. Whether binding was seen depends on the method and setting. In cells and extracts the contact can be indirect. Some results given as binding are weak or reduced against the parent protein; the word gives no strength. Tags and fused reporters may be left off the sequences shown.

B1: TRPC3 WT (untagged) (protein, UniProt Q13507 1-921)
chain: MSTKVRKCKEQARVTFPAPEEEEDEGEDEGAEPQRRRRGWRGVNGGLEPRSAPSQREPHGYCPPPFSHGPDLSMEGSPSLRRMTVMREKGRRQAVRGPAFMFNDRGTSLTAEEERFLDAAEYGNIPVVRKMLEESKTLNVNCVDYMGQNALQLAVGNEHLEVTELLLKKENLARIGDALLLAISKGYVRIVEAILNHPGFAASKRLTLSPCEQELQDDDFYAYDEDGTRFSPDITPIILAAHCQKYEVVHMLLMKGARIERPHDYFCKCGDCMEKQRHDSFSHSRSRINAYKGLASPAYLSLSSEDPVLTALELSNELAKLANIEKEFKNDYRKLSMQCKDFVVGVLDLCRDSEEVEAILNGDLESAEPLEVHRHKASLSRVKLAIKYEVKKFVAHPNCQQQLLTIWYENLSGLREQTIAIKCLVVLVVALGLPFLAIGYWIAPCSRLGKILRSPFMKFVAHAASFIIFLGLLVFNASDRFEGITTLPNITVTDYPKQIFRVKTTQFTWTEMLIMVWVLGMMWSECKELWLEGPREYILQLWNVLDFGMLSIFIAAFTARFLAFLQATKAQQYVDSYVQESDLSEVTLPPEIQYFTYARDKWLPSDPQIISEGLYAIAVVLSFSRIAYILPANESFGPLQISLGRTVKDIFKFMVLFIMVFFAFMIGMFILYSYYLGAKVNAAFTTVEESFKTLFWSIFGLSEVTSVVLKYDHKFIENIGYVLYGIYNVTMVVVLLNMLIAMINSSYQEIEDDSDVEWKFARSKLWLSYFDDGKTLPPPFSLVPSPKSFVYFIMRIVNFPKCRRRRLQKDIEMGMGNSKSRLNLFTQSNSRVFESHSFNSILNQPTRYQQIMKRLIKRYVLKAQVDKENDEVNEGELKEIKQDISSLRYELLEDKSQATEELAILIHKLSEKLNPSMLRCE
B2: GFP10-TRPC7-RLucII biosensor (protein, UniProt Q9HCX4 1-862)
chain: MLRNSTFKNMQRRHTTLREKGRRQAIRGPAYMFNEKGTSLTPEEERFLDSAEYGNIPVVRKMLEESKTLNFNCVDYMGQNALQLAVGNEHLEVTELLLKKENLARVGDALLLAISKGYVRIVEAILNHPAFAQGQRLTLSPLEQELRDDDFYAYDEDGTRFSHDITPIILAAHCQEYEIVHILLLKGARIERPHDYFCKCNECTEKQRKDSFSHSRSRMNAYKGLASAAYLSLSSEDPVLTALELSNELARLANIETEFKNDYRKLSMQCKDFVVGVLDLCRDTEEVEAILNGDVNFQVWSDHHRPSLSRIKLAIKYEVKKFVAHPNCQQQLLTMWYENLSGLRQQSIAVKFLAVFGVSIGLPFLAIAYWIAPCSKLGRTLRSPFMKFVAHAVSFTIFLGLLVVNASDRFEGVKTLPNETFTDYPKQIFRVKTTQFSWTEMLIMKWVLGMIWSECKEIWEEGPREYVLHLWNLLDFGMLSIFVASFTARFMAFLKATEAQLYVDQHVQDDTLHNVSLPPEVAYFTYARDKWWPSDPQIISEGLYAIAVVLSFSRIAYILPANESFGPLQISLGRTVKDIFKFMVIFIMVFVAFMIGMFNLYSYYRGAKYNPAFTTVEESFKTLFWSIFGLSEVISVVLKYDHKFIENIGYVLYGVYNVTMVVVLLNMLIAMINNSYQEIEEDADVEWKFARAKLWLSYFDEGRTLPAPFNLVPSPKSFYYLIMRIKMCLIKLCKSKAKSCENDLEMGMLNSKFKKTRYQAGMRNSENLTANNTLSKPTRYQKIMKRLIKRYVLKAQVDRENDEVNEGELKEIKQDISSLRYELLEEKSQATGELADLIQQLSEKFGKNLNKDHLRVNKGKDI
B3: TRPC7 WT (untagged) (protein, UniProt Q9HCX4 1-862)
chain: B2 chain

Molecular target: T1, GFP10-TRPC7-RLucII biosensor (human) (UniProt Q9HCX4)
T1 sequence: B2 chain
Test: FRET or BRET; BRET^2 in living HEK293 cells co-transfected with GFP10-TRPC7-RLucII (75 ng), Gαq-DREADD (500 ng) and increasing untagged TRPC7 WT or TRPC3 WT (0 to 500 ng); basal BRET ratio read 48 h after transfection in HBSS with 20 mM HEPES, coelenterazine 400 A 5 µM

binding, binds:
B1, B2, B3
